Data published in publication PMC9288484.
These are yes or no findings as the source states them, for the method shown. In cells and extracts the contact can be indirect. Some entries that bind do so weakly or less than the wild type. Sequences can lack the tags named with a protein.

Columns and labels:
Assay in all cases: co-IP; 293T cells co-expressing an HA-tagged and a 3xFlag-tagged protein; Nonidet P-40 lysis buffer (50 mM Tris-Cl pH 8.0, 100 mM NaCl, 1% NP-40); Flag antibody-conjugated beads 2 h at 4 °C, eluted with 3xFlag peptides; immunoblot
[1] = molecular target: T1, 3xFlag-tagged human IRGM_v2 (shorter isoform) expressed in 293T cells (human) (UniProt A1A4Y4)
T1 sequence: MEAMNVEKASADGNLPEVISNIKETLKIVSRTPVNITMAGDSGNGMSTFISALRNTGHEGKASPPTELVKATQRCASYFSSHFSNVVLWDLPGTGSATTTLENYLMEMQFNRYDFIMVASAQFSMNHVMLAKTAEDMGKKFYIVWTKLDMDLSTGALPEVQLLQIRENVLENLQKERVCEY

[2] = molecular target: T2, 3xFlag-tagged human IRGM_v1 (longer isoform) expressed in 293T cells (human) (UniProt A1A4Y4)
T2 sequence: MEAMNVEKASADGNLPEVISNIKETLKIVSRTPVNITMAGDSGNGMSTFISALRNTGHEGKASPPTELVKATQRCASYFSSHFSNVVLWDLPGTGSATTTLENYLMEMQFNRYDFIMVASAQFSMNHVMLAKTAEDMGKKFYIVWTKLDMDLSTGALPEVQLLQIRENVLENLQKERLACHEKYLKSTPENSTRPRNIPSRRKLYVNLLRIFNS

[3] = molecular target: T3, 3xFlag-tagged human IRGC (immunity related GTPase cinema) expressed in 293T cells (human) (UniProt Q6NXR0)
T3 sequence: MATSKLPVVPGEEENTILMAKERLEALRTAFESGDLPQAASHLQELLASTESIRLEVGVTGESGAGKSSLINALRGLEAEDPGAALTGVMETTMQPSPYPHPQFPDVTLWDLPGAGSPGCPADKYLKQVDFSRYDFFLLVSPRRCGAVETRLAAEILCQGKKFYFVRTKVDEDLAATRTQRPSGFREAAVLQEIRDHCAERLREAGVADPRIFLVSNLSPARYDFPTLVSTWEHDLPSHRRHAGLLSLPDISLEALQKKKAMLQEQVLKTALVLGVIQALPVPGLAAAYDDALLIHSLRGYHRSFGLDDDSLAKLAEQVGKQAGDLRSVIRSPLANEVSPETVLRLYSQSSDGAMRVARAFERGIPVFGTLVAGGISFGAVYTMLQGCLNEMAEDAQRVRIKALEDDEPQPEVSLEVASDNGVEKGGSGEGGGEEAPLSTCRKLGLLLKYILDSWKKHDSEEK

B1: HA-tagged human HSD17B13 expressed in 293T cells (protein, UniProt Q7Z5P4 20-300)
chain: ESLVKFFIPQRRKSVAGEIVLITGAGHGIGRQTTYEFAKRQSILVLWDINKRGVEETAAECRKLGVTAHAYVVDCSNREEIYRSLNQVKKEVGDVTIVVNNAGTVYPADLLSTKDEEITKTFEVNILGHFWITKALLPSMMERNHGHIVTVASVCGHEGIPYLIPYCSSKFAAVGFHRGLTSELQALGKTGIKTSCLCPVFVNTGFTKNPSTRLWPVLETDEVVRSLIDGILTNKKMIFVPSYINIFLRLQKFLPERASAILNRMQNIQFEAVVGHKIKMK
[1]
  binding: no binding
[2]
  binding: no binding
[3]
  binding: binds
